PubChem BioAssay AID1224826, NIAID | 2016
The deposit covers about 17,000 reagents; this is a random part of them. In the full data, about 1,110 (6.6%) got an active call. 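Active means lowered or raised reporter signal; replicate intensities are raw and not normalised per plate.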 A number with no mark means an inactive call. Not all columns of the deposit are shown.

- Test: 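Knock-downs that raise or lower Tnf reporter signal after endotoxin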 (primary screen)
- Cell system: RAW264.7 G9 macrophages from mouse bearing reporters for p65 (GFP) and the Tnf promoter (mCherry)
- Reagent: siRNA pool against mouse genes, 100 nM
- Time to read-out: 16 h of LPS stimulation, after 2 days of siRNA transfection
- Challenge: bacterial lipopolysaccharide (Salmonella minnesota R595), 10 ng/ml
- Measurement: 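Imaged Tnf reporter mCherry in nuclei, minus background, normalised per plate to the median and expressed as robust z-scores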
- Direction: Tnf reporter robust z-score: higher = stronger Tnf promoter reporter signal after LPS
- Hit rule: 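a well counts as active at a score of -1.3 or below (Tlr4 knock-down control median) or above 3 (raised signal); controls and wells holding fewer than 50 cells are excluded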
- Calls: active = Tnf reporter clearly lowered or raised; inactive = no clear change in Tnf reporter

Scamp3 | Tnf reporter robust z-score = 0.43; fewer than 50 cells in well = enough cells in well
Cutc (cutC copper transporter) | Tnf reporter robust z-score = -0.91; fewer than 50 cells in well = enough cells in well
Or8b12i (olfactory receptor family 8 subfamily B member 12I) | Tnf reporter robust z-score = -1.13; fewer than 50 cells in well = enough cells in well
Exoc3l2 (exocyst complex component 3-like 2) | Tnf reporter robust z-score = 4.98 (active); fewer than 50 cells in well = enough cells in well
Prl8a9 (prolactin family8, subfamily a, member 9) | Tnf reporter robust z-score = 0.18; fewer than 50 cells in well = enough cells in well
Enoph1 (enolase-phosphatase 1) | Tnf reporter robust z-score = 0.08; fewer than 50 cells in well = enough cells in well
Vav1 (vav guanine nucleotide exchange factor 1) | Tnf reporter robust z-score = -0.06; fewer than 50 cells in well = enough cells in well
Kbtbd3 (kelch repeat and BTB (POZ) domain containing 3) | Tnf reporter robust z-score = -0.76; fewer than 50 cells in well = enough cells in well
Slc19a1 | Tnf reporter robust z-score = 0.9; fewer than 50 cells in well = enough cells in well
Tnp1 (transition protein 1) | Tnf reporter robust z-score = 4.03 (active); fewer than 50 cells in well = enough cells in well
Acacb (acetyl-Coenzyme A carboxylase beta) | Tnf reporter robust z-score = 0.42; fewer than 50 cells in well = enough cells in well
Fbh1 (F-box DNA helicase 1) | Tnf reporter robust z-score = 5.3 (active); fewer than 50 cells in well = enough cells in well
Rarres2 (retinoic acid receptor responder (tazarotene induced) 2) | Tnf reporter robust z-score = -1.1; fewer than 50 cells in well = enough cells in well
Reep3 (receptor accessory protein 3) | Tnf reporter robust z-score = -0.66; fewer than 50 cells in well = enough cells in well
Or9e1 (olfactory receptor family 9 subfamily E member 1) | Tnf reporter robust z-score = -0.81; fewer than 50 cells in well = enough cells in well
Mplkip (M-phase specific PLK1 intereacting protein) | Tnf reporter robust z-score = -1.15; fewer than 50 cells in well = enough cells in well
Rnf4 (ring finger protein 4) | Tnf reporter robust z-score = -0.41; fewer than 50 cells in well = enough cells in well
Prc1 (protein regulator of cytokinesis 1) | Tnf reporter robust z-score = 0.6; fewer than 50 cells in well = enough cells in well
Pelo (pelota mRNA surveillance and ribosome rescue factor) | Tnf reporter robust z-score = -1.21; fewer than 50 cells in well = enough cells in well
Pitx1 (paired-like homeodomain transcription factor 1) | Tnf reporter robust z-score = -0.48; fewer than 50 cells in well = enough cells in well
Jpt1 (Jupiter microtubule associated homolog 1) | Tnf reporter robust z-score = 1.99; fewer than 50 cells in well = enough cells in well
Or7e174 (olfactory receptor family 7 subfamily E member 174) | fewer than 50 cells in well = fewer than 50 cells per well; well left out of calls
A630023P12Rik (RIKEN cDNA A630023P12 gene) | Tnf reporter robust z-score = 1.67; fewer than 50 cells in well = enough cells in well
Yipf7 (Yip1 domain family, member 7) | fewer than 50 cells in well = fewer than 50 cells per well; well left out of calls
Gtf2f2 (general transcription factor IIF, polypeptide 2) | Tnf reporter robust z-score = -0.43; fewer than 50 cells in well = enough cells in well
Ica1l (islet cell autoantigen 1-like) | Tnf reporter robust z-score = -0.09; fewer than 50 cells in well = enough cells in well
Ank2 (ankyrin 2, brain) | Tnf reporter robust z-score = 0.02; fewer than 50 cells in well = enough cells in well

Limited to “Tnf reporter robust z-score” (2 entries from above):
Acacb (acetyl-Coenzyme A carboxylase beta): 0.42
Fbh1 (F-box DNA helicase 1): 5.3 (active)
